# Laboratory results as given in PubChem BioAssay AID588590 (National Center for Advancing Translational Sciences (NCATS), 2011).
# Protein sequences, listed by entry. Tags and fused reporters are not part of them. Lines headed by an entry give the natural chain unless they say otherwise; changes in a name come on top.
# UniProt Q9UNA4: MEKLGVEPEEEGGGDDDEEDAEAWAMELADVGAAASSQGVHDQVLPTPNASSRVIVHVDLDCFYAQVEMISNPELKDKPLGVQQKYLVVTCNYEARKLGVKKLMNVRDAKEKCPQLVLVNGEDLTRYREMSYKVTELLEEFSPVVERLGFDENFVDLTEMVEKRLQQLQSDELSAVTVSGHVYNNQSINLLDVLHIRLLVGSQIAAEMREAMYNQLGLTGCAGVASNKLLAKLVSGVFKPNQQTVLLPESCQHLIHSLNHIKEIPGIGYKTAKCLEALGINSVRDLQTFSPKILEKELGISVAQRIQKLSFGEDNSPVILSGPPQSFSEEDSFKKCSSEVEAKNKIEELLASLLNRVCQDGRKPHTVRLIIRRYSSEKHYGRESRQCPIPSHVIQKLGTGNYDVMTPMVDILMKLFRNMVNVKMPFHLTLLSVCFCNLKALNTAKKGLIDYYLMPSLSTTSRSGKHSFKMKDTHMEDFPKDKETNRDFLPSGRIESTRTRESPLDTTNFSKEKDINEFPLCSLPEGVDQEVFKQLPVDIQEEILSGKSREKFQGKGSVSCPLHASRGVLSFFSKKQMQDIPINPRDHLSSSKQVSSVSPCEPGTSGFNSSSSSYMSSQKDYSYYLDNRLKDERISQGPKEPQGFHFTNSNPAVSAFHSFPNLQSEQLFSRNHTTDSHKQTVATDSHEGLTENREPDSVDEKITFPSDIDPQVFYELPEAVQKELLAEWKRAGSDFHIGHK
# Screen size: about 390,000 compounds; about 4,000 (1%) were called active. Inconclusive results, whose numbers are uncertain, are shown with a selection of clear calls. Calls follow the shape of the dose curve; as a rule, active = well fitted inhibition curve with a large enough effect; inconclusive = small, poorly fitted or top-dose-only effect, or another doubt; inactive = no such curve, though single readings can be large or run the other way. Potencies of inconclusive entries are doubtful fits and often do not repeat.
# Target: DNA polymerase iota (Homo sapiens) (UniProt Q9UNA4)
# Assay: qHTS for Inhibitors of Polymerase Iota
# Conditions: Pol iota fluorescent replication assay, 10 min; series mostly up to 115 µM
# Method in brief: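 Pol iota at 10 nM preincubated 15 min with compounds at room temperature; reaction started with fluorescent substrate, 50 nM final. Fluorescence read kinetically at 0 and 10 min; buffer-only wells as negative control.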
# Potency is read from the fitted curve at half-maximal effect.
row,Compound,Potency
1,O=C1NC(=O)N(c2cccc(Br)c2)C(=O)/C1=C/c1ccsc1,"inconclusive: 35.5 µM [inhibitor, full curve]"
2,ClCCN1CCSCC1,"inconclusive: 25.1 µM [inhibitor, partial curve, poor fit]"
3,O=[N+]([O-])c1ccc(NCc2ccc(Cl)cc2)c2ccncc12,inactive
4,CC1(C)C2([N+](=O)[O-])CN3CN(C2)CC1([N+](=O)[O-])C3,"inconclusive: 89.1 µM [inhibitor, single point]"
5,C=C1C(O)[C@@H]2O[C@]3(CC[C@H](/C=C/C(C)[C@@H]4CC(C)=CC5(O[C@H](C[C@@](C)(O)C(=O)O)CCC5O)O4)O3)CC[C@H]2O[C@@H]1C(O)CC(C)[C@H]1OC2(CCCCO2)CCC1C (stereo partly specified),"inconclusive: 11.2 µM [inhibitor, partial curve, poor fit]"
6,CN(C(=O)c1cccc(NC(=O)Cc2cccc([N+](=O)[O-])c2)c1)C1CCCCC1,"inconclusive: 79.4 µM [inhibitor, single point]"
7,O=C(CN1C(=O)CN=C(c2ccccc2Cl)c2cc(Cl)ccc21)NCc1ccco1,"inconclusive: 1.41 µM [inhibitor, full curve, poor fit]"
8,Nc1ccc(CCN2CCN(c3cccc(C(F)(F)F)c3)CC2)cc1,"inconclusive: 39.8 µM [inhibitor, single point]"
9,COc1ccc(N2C(=O)/C(=C/c3ccc(OC)c(OC)c3)C(=O)NC2=S)cc1,"inconclusive: 39.8 µM [inhibitor, single point]"
10,O=C(CN1C(=O)S/C(=C\C=C\c2ccccc2)C1=O)Nc1ccccc1C(=O)O,"inconclusive: 17.8 µM [inhibitor, full curve, poor fit]"
11,CCCCCCCCn1sccc1=O,"inconclusive: 20 µM [inhibitor, partial curve, poor fit]"
12,COc1ccccc1-n1c(O)c(/C=N/NC(=S)Nc2ccccc2)c(=O)[nH]c1=S,"inconclusive: 39.8 µM [inhibitor, partial curve, poor fit]"
13,Cc1cc(/C=C2\C(=O)NC(=O)N(Cc3ccccc3)C2=O)c(C)n1C1CC1,"inconclusive: 22.4 µM [inhibitor, partial curve, poor fit]"
14,CCC1(C)CC(C(N)=S)CCO1 (stereo unspecified),"inconclusive: 17.8 µM [inhibitor, partial curve, poor fit]"
15,O=C1NC(=O)N(Cc2ccccc2Cl)C(=O)/C1=C/c1cccs1,"inconclusive: 14.1 µM [inhibitor, partial curve, poor fit]"
16,COC(COC(N)=O)C1=C(N2CC2)C(=O)C(C)=C(N2CC2)C1=O (stereo unspecified),"inconclusive: 28.2 µM [inhibitor, partial curve]"

# From entry 1 to 2, as listed above:
row,Compound,Potency
1,O=C1NC(=O)N(c2cccc(Br)c2)C(=O)/C1=C/c1ccsc1,"inconclusive: 35.5 µM [inhibitor, full curve]"
2,ClCCN1CCSCC1,"inconclusive: 25.1 µM [inhibitor, partial curve, poor fit]"
